Results are given in words; binding and its absence hold for the method and conditions named. For part of these data: In cells and extracts the contact can be indirect. Some results given as binding are weak or reduced against the parent protein; the word gives no strength.
How the values were obtained:
[1] = target: toll-like receptor 4 (endogenous, mouse) (mouse (endogenous in C57BL/6 liver and AML12 cells)) (UniProt Q9QUK6); test: ELISA; anti-TLR4 coated on plates; liver lysates (200 μg/mL) captured; rhMD2 mixed with irisin (0.1, 0.2 and 0.5 μg/mL) added for 2 h at room temperature; detected with anti-MD2; only the binder purified
[2] = target: toll-like receptor 4 (endogenous, mouse) (mouse (endogenous in C57BL/6 liver and AML12 cells)) (UniProt Q9QUK6); test: co-IP; AML12 cell lysates; cells pretreated with recombinant irisin (50 or 100 ng/mL) for 30 min, then 200 μM PA for 2 h
[3] = target: toll-like receptor 4 (endogenous, mouse) (mouse (endogenous in C57BL/6 liver and AML12 cells)) (UniProt Q9QUK6); test: co-IP; mouse liver tissue lysates (RIPA) of NCD, HFD and HFD + exercise mice; precipitating antibody overnight at 4 °C, protein A/G agarose, Western blot

By UniProt entry, the sequences of proteins in these tests, tags left out. Residues count along the entry.
UniProt Q9QUK6, residues 26-835: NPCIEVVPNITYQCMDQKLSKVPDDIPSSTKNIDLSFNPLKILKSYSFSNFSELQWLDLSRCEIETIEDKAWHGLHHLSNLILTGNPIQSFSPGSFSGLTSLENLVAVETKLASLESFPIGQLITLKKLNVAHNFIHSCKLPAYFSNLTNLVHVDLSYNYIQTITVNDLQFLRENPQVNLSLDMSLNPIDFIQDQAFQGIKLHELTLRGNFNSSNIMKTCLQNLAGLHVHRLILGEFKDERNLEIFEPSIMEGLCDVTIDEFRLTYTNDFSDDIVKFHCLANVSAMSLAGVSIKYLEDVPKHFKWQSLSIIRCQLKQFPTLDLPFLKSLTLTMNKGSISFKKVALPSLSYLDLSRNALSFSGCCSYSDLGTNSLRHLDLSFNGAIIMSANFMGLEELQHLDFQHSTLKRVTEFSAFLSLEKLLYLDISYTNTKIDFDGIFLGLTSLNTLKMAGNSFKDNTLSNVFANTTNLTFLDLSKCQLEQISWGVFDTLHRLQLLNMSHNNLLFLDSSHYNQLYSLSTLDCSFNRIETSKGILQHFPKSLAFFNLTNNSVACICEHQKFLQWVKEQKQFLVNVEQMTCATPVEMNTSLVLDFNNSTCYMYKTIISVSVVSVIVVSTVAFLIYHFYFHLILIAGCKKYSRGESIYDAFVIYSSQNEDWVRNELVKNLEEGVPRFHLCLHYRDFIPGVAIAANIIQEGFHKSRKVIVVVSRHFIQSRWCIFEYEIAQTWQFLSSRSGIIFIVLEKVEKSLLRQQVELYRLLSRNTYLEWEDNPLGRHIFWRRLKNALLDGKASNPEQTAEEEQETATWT

binding [1]	binding [2]	binding [3]	Binder
binds	–	–	recombinant human MD2 (protein, UniProt Q9Y6Y9 19-160) QKQYWVCNSSDASISYTYCDKMQYPISINVNPCIELKRSKGLLHIFYIPRRDLKQLYFNLYITVNTMNLPKRKEVICRGSDDDYSFCRALKGETVNTTISFSFKGIKFSKGKYKCVVEAISGSPEEMLFCLEFVILHQPNSN
–	binds	binds	MD2 (endogenous, mouse) (protein, UniProt Q9JHF9 19-160) EKQQWFCNSSDAIISYSYCDHLKFPISISSEPCIRLRGTNGFVHVEFIPRGNLKYLYFNLFISVNSIELPKRKEVLCHGHDDDYSFCRALKGETVNTSIPFSFEGILFPKGHYRCVAEAIAGDTEEKLFCLNFTIIHRRDVN

— paper PMC8699279, “Exercise-Induced Irisin Decreases Inflammation and Improves NAFLD by Competitive Binding with MD2” (Cells, 2021)
